The source of these data is PubChem BioAssay AID1347423 (Functional Genomics Laboratory (NCATS/FGL), 2020).

Among all 52,000 sequences or so, about 210 (0.4%) were called active.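 Rule for the calls: active = gene whose silencing raises cell survival under the drug, median off-target-corrected z-score across its silencing RNAs 2 or more; inactive = the rest.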 The list shows a part of the results.

The experiment in a line: Resistance to Poly (ADP-Ribose) Polymerase inhibitor: Gene Identification via Genome-wide siRNA Screen. Particulars: mouse BRCA2 R2336H ES cells, olaparib, CellTiter-Glo viability; active compounds read high. The gist of the method: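 Genome-wide siRNA screen (3 siRNAs/gene, 20 nM) in mouse ES cells carrying hypomorphic BRCA2 R2336H; olaparib 500 nM added 48 h post-transfection, CellTiter-Glo viability 72 h later. Normalized to plate-median negative control; MAD z-scores, gene median, seed-adjusted.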
For orientation: Cellular ATP, detected with luciferase, serves as a proxy for viable cell number.
For the sequence “GCAUAAUGACCAUGUCUGUTT against 1700001J03Rik”, the z-score was inactive: -0.102.

With “GGAAGAAAGACUAGACUCGTT against 6230401O10Rik”, the z-score was inactive: 0.315.

With GCUGACAUUGAGAAUCGGGTT against Hcph, the z-score was inactive: 1.47.

On to “GGGAGUGAAUCAUUAUCUUTT against 8030499H02Rik”, for which the z-score was inactive: 0.146.

As for “CCCAAUUUUUAGUCUUAUGTT against D330012F22Rik”, the z-score was inactive: 0.0439.

Take GGAGAUCCAAGAGAAAUUUTT against Csf3r: the z-score is inactive: -0.0129.

Turning to GCCUCGUAUAGAGAAGUGATT against Gnat1, the z-score was inactive: -0.388.

As to GGAAGAAACAUGUAUCAUGTT against Tff1, the z-score is inactive: -0.149.

On to GUAUCCUUAUUUUUGCCCATT against V1rb3, for which the z-score is inactive: -0.663.

Turning to GGCCUCCUAAGAGGACUCATT against Dach1, the z-score was inactive: -0.306.

Turning to GGCAACAUUAUCAACAUGUTT against Dhrs6, the z-score is inactive: 0.0969.

On to “GGCAGAGAAGCAAAACCAATT against 1700012F17Rik”, for which the z-score was inactive: -1.2.

Regarding GGAAGAAAAUGAGAGCACUTT against Spt2, the z-score is inactive: -0.504.

For GGACUUUAUCAAGGAGUAATT against Mftc, the z-score was inactive: -0.878.

GGCAGUACCACUUGUCUUATT against Tctex1: the z-score is inactive: -0.814.

As to GGAUUUCAACUAUUUGUUGTT against Spna1, the z-score is inactive: 0.374.

“GGACAUGGAGAACCUUUUUTT against 0710008K08Rik”: the z-score was inactive: -0.731.

Take GGAUGGAACUUACAACUGGTT against SIRP-beta: the z-score was inactive: -1.18.

For CCUCUUUGGAAGAAUGCUGTT against Mapk11, the z-score was inactive: 0.306.

Take GGAAAAUCAGCAUUUUGCCTT against Cdca3: the z-score was inactive: 0.893.

For GCAGAUCUCCGAUUAUUUUTT against Doc2b, the z-score was inactive: 1.18.

Take “GGACUUCAAAUGCUGUGGCTT against 1110014F12Rik”: the z-score was inactive: -0.562.

In the case of GGGAAAAUGCUUUGUUGGATT against Rqcd1, the z-score was active: 1.97.

On to “GGUGAGACGUGCUUCAAAUTT against D130058I21Rik”, for which the z-score is inactive: -0.52.

As to GCCUCCCUGAAUGCCUAUATT against Sectm1, the z-score is inactive: -2.4.

In the case of “GGUACCUGUGCUAUGGAGUTT against C230052I12Rik”, the z-score is inactive: 0.182.

GGUGCCCUAUGGAGAGAAATT against Serac1: the z-score was inactive: -0.0661.

As for GGAGGAAGAUUUUUUUGCUTT against Arfgap3, the z-score was inactive: 1.44.

With GAGAAUAAUACCAUCUCCUTT against Olfr482, the z-score is inactive: 0.757.

As to GCUCAGUUUACCACACGAGTT against Arl11, the z-score was inactive: -1.19.

Turning to GCUCAAUCUAGGGCGAAGATT against Cd3z, the z-score is inactive: -1.17.

Regarding GCUGAAAACUAGUCAGUCCTT against Epn3, the z-score is inactive: -0.288.

In the case of “GGCCAUUAUUCGUGAGUUGTT against 2810037C14Rik”, the z-score is inactive: -0.0825.

With GCCUAGACCAGACACCAAATT against Prp15, the z-score is inactive: 1.2.

For GGACCAAGGGUUCAUAGCATT against Wdr35, the z-score was inactive: 0.862.

In the case of GGAAGCUGCACGGCAACUUTT against Btn2, the z-score is inactive: -0.644.

Turning to GGAGAAGAGGACUUUGGUGTT against Tmem10, the z-score was inactive: 1.01.

Turning to CCAUUCACAGGUAGAGGAATT against AA415817, the z-score was inactive: 1.52.

As to CCCUAGAAGAGCUCUGUUATT against Cts6, the z-score was inactive: -0.275.

As to GGUGACAAAAGUCUUUAACTT against Mkrn3, the z-score is inactive: 0.361.

Take CGAUGAUUAACAUCUUACGTT against Scrn1: the z-score was inactive: -0.0702.

For GGUAUAAAGCCUCAGUUUUTT against Odag, the z-score is inactive: 0.234.

As to GCGGCAGUAAAUUGUGAGGTT against Grin3b, the z-score is inactive: -0.406.

GCCUAGACCAGAGAAAGGUTT against AW555464: the z-score is inactive: 0.139.

Turning to GGUGAAAAUACAUUGCCAGTT against Plk4, the z-score is inactive: -0.482.

On to GGUGCCGAACGUGUAAUUATT against Rarb, for which the z-score is inactive: -0.423.

With GGGCAAAGAUCAAAGAGAUTT against Man1a, the z-score was inactive: 0.563.

Regarding GGAUAACCAAAGGAAUGUUTT against Cldn17, the z-score is inactive: 0.39.

As for GGAAGGUUGUAAGUUUAAATT against Krtap14, the z-score was inactive: 1.18.

Regarding GGGCCAACAGAAACAGAAGTT against Otp, the z-score is inactive: 1.84.

In the case of “GGGCCUUUAAAGUAGUUGATT against D930018N13”, the z-score was inactive: -0.162.

For GCAAGCUGAACUACUUGAGTT against Ern1, the z-score was inactive: 1.1.

Regarding CCAAUCAUGAUCUGGGCUCTT against Gng4, the z-score is inactive: 1.64.

As to GGUUGCACUCAUCUUAAAATT against Zfp9, the z-score was inactive: -0.519.

On to GCACUUAUGGUUUAGAUGUTT against Prdm8, for which the z-score was inactive: -0.158.

Take GGGAGGACAUCCAGACAAUTT against AW060714: the z-score is inactive: -3.37.

Regarding GCAAACUUAUUACCAGGGATT against Shc3, the z-score was inactive: -0.383.

In the case of GCUAAGGACACGCUCUAUCTT against Sema5b, the z-score was inactive: 0.241.

As for GCGUGCUUUGAAGAGGUUGTT against Olfr298, the z-score is inactive: -1.18.

Take CGGUUAGUCUGUCAGUAUCTT against Xrcc3: the z-score was inactive: -0.854.

Turning to “GCAAGUCCAUUCUUUUUCATT against 9930032O22Rik”, the z-score was inactive: -0.537.

Take GGAGGCCACCAAAAUUAACTT against Kif17: the z-score was inactive: -0.487.

On to CGAGAAGACCAUCAUCAUATT against Rbbp9, for which the z-score was inactive: 0.497.

For the sequence CCUGUAAGGUCUCUAGCAUTT against Exosc1, the z-score is inactive: 0.0218.

As to “CCGAAGUCAAUGAAGCUCUTT against 5730591C18Rik”, the z-score was inactive: 0.345.

As to “GGUCUUUGACAUUUUGAAUTT against 4921513O20Rik”, the z-score was inactive: 0.16.

In the case of GGCGAUCCUUACUCCAAUGTT against Zfp90, the z-score is inactive: 0.2.

Regarding CCAGUCAAAAGGAAAUGAATT against Dclre1a, the z-score was inactive: -0.241.

In the case of “GGCUUUGAGAGGAACACCATT against D030001E08”, the z-score is inactive: 2.85.

As to GGACCAGGUCCGUUGGAAUTT against Efna1, the z-score is inactive: -0.424.

For GGAGAUGAUGUCACCUACATT against BC003236, the z-score was inactive: -1.93.

With CCCAUCAAUGCUGUUAAUUTT against Entpd5, the z-score was inactive: 0.715.

With GGACUAUGUCUUUGACAAATT against Cdyl2, the z-score was inactive: 0.465.

On to CGAAGGAUUCAGAUAAAGUTT against Trim13, for which the z-score is inactive: 0.00771.

Consider GGAGAUAAAAGUUUCAUCUTT against Jmjd2b, for which the z-score was inactive: 0.46.

With “GGGCUCAUGGCUUUGUUUUTT against 1110019N10Rik”, the z-score is inactive: -0.477.

As for GGUCGUCCCAUCAAUGUGCTT against Cpa1, the z-score was inactive: 2.99.

For “GGAGGAACGGAAAAAGGUUTT against 1700088E04Rik”, the z-score is inactive: 0.169.

In the case of “GGUCAUGACAGGAUACCCATT against C630035N08Rik”, the z-score is inactive: 1.46.

Regarding GCAACAACUACGCAUGCUCTT against Snap25, the z-score was inactive: -0.391.

In the case of GCAAUGGAAUUCUCGUGCCTT against Cth, the z-score is inactive: 0.233.

Turning to CGGGCUGGAAGAAAUCUCUTT against Rhox3, the z-score is inactive: 0.716.

GGAUUUGGUGCAUCUUCCGTT against Olfr609: the z-score is inactive: -0.617.

Take GGUUAUUUCUUUGCUUUGCTT against Apod: the z-score was inactive: 0.649.

As to “GGCAAAAUGAGUGAGAGGUTT against A030007L17Rik”, the z-score was inactive: -0.038.

GGCCGAAGACCCUAAUUUATT against Cklfsf7: the z-score was inactive: 0.742.

With “CCCAAGUGCUAACCUAAUATT against 1700020C11Rik”, the z-score is inactive: 0.568.

Regarding “GGGUGGAUUGAGAACAUCATT against 2400002F02Rik”, the z-score was inactive: -0.682.

For CGGUCUGUGAAAGAUGCAGTT against Vps24, the z-score is inactive: -2.21.

Consider GGUUCUGUACCAUCUUCAGTT against Rab40c, for which the z-score is inactive: -0.0707.

As for GCCGGGAGAGUAAUGUCUGTT against BC059845, the z-score is inactive: -1.15.

For the sequence “GGGAGUUUUUAUAUGGUUUTT against A130042E20Rik”, the z-score is inactive: -0.657.

On to “GCAGCAACAAGAAAUCAGCTT against 1700058C13Rik”, for which the z-score was inactive: 0.781.

Take GCAGAAUUCACCCGAAACUTT against Tnip1: the z-score was inactive: 0.606.

CGAUAUCCCAACAGUAAUATT against Nalp6: the z-score is inactive: -0.337.

For GGAGCUUCUAGACUGUACCTT against Lrmp, the z-score was inactive: -0.51.

Turning to GGUGGUUAGCGAUGAGAAUTT against Pabpc2, the z-score is inactive: -0.515.

In the case of GGUAGAUCAUGGCCAUCCUTT against Ntf5, the z-score was inactive: -0.647.

GCUUAUACGAAGAUAAUUGTT against Hmgb1: the z-score was inactive: -0.826.

With “GGUCACUUUCAACCUCAUATT against 2310076L09Rik”, the z-score is inactive: -1.67.

Turning to GGCUGUCAUGCAUUAUAUGTT against Tcfeb, the z-score is inactive: 0.176.

Consider GGUGUUCAUGAGUGCUAUATT against Apg10l, for which the z-score is inactive: -0.19.

CCAGACAUCGUGCUUUACATT against Chrna3: the z-score was inactive: 0.542.

As to GGAGGACCAUUGAAUUAUGTT against AI836003, the z-score is inactive: -0.371.
